Data source: PubChem BioAssay AID1159591 (NIAID, 2016)

Test: 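TLR7/8 agonist R848 and Tnf expression after gene knock-down in mouse macrophages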
Cells: mouse RAW264.7 G9 macrophage reporter clone (GFP-p65, Tnf promoter-mCherry)
Reagent: single siRNA against mouse genes
Duration: cells assayed 48 to 72 hours after siRNA transfection; R848 for 16 hours before fixing
Challenge: R848 (TLR7/8 agonist) for 16 hours before fixation; dose not given
Measured: 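After R848 for 16 hours, nuclear Tnf promoter mCherry signal imaged minus background, scaled per plate by median and MAD into robust z against non-targeting controls, averaged across replicates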
Scale: mean Tnf reporter z-score: higher = stronger Tnf promoter reporter signal than controls
Rule for the call: 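Activity score from absolute z: steps above 1, 1.5, 2 and 2.5 give 25 to 100; active cut not stated, but active genes here sit near z -1.5 or below, or 1.5 or above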
Meaning of the calls: active = reporter clearly up or down; inactive = little reporter change
This is a random part of 756 deposited reagents. Of all reagents, 130 (17%) were called active. 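Active calls include both lower and higher Tnf reporter signal.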 Unmarked entries are inactive. The numbers tell different reagents against one gene apart. Not given: the amount of reagent.

gene,reagent,mean Tnf reporter z-score
Tlr3 (GeneID 142980),1,-0.426
Tlr3 (GeneID 142980),2,-1.93 (active)
Tlr3 (GeneID 142980),3,-0.396
Tlr3 (GeneID 142980),4,0.646
Tlr3 (GeneID 142980),5,0.836
Tlr3 (GeneID 142980),6,0.612
Ep300 (GeneID 328572),1,-1.47
Ep300 (GeneID 328572),2,-1.13
Ep300 (GeneID 328572),3,0.00922
Ep300 (GeneID 328572),4,0.0777
Ep300 (GeneID 328572),5,-2.03 (active)
Ep300 (GeneID 328572),6,-1.67 (active)
Akt2 (GeneID 11652),1,-1.38
Akt2 (GeneID 11652),2,-0.713
Akt2 (GeneID 11652),3,-0.0111
Akt2 (GeneID 11652),4,-0.736
Akt2 (GeneID 11652),5,-0.709
Akt2 (GeneID 11652),6,-0.266

Records listed so far whose gene name starts with A or a (6):
gene,reagent,mean Tnf reporter z-score
Akt2 (GeneID 11652),1,-1.38
Akt2 (GeneID 11652),2,-0.713
Akt2 (GeneID 11652),3,-0.0111
Akt2 (GeneID 11652),4,-0.736
Akt2 (GeneID 11652),5,-0.709
Akt2 (GeneID 11652),6,-0.266

Further records follow:
gene,reagent,mean Tnf reporter z-score
Rela (GeneID 19697),1,-0.381
Rela (GeneID 19697),2,0.113
Rela (GeneID 19697),3,-2.26 (active)
Rela (GeneID 19697),4,-1.66 (active)
Rela (GeneID 19697),5,-1.31
Rela (GeneID 19697),6,-1.5 (active)
Atf7 (GeneID 223922),1,-1.11
Atf7 (GeneID 223922),2,-0.268
Atf7 (GeneID 223922),3,-1.16
Atf7 (GeneID 223922),4,0.644
Atf7 (GeneID 223922),5,-0.855
Atf7 (GeneID 223922),6,-1.53 (active)
Tank (GeneID 21353),1,-1.84 (active)
Tank (GeneID 21353),2,1.62 (active)
Tank (GeneID 21353),3,0.219
Tank (GeneID 21353),4,1.18
Tank (GeneID 21353),5,0.505
Tank (GeneID 21353),6,0.883
Stat1 (GeneID 20846),1,0.792
Stat1 (GeneID 20846),2,0.0908
Stat1 (GeneID 20846),3,-0.529
Stat1 (GeneID 20846),4,-0.618
Stat1 (GeneID 20846),5,-0.217
Stat1 (GeneID 20846),6,-1.62 (active)
Tradd (GeneID 71609),1,2.3 (active)
Tradd (GeneID 71609),2,-0.955
Tradd (GeneID 71609),3,-0.0661
Tradd (GeneID 71609),4,0.666
Tradd (GeneID 71609),5,-1.2
Tradd (GeneID 71609),6,1.39
